Measurements: patent US7186545B2, “Probiotic strains from Lactobacillus salivarius and antimicrobial agents obtained therefrom” (Enterprise Ireland, priority 1997, dated 2007)
At least one compound was matched to its structure with a doubt left.

System: Lactobacillus isolates
Experiment: Antibiotic disc susceptibility assay
Conditions: sensitive if zone of 1 mm or greater

CO[C@H]1/C=C/O[C@@]2(C)Oc3c(C)c(O)c4c(O)c(c(/C=N/N5CCN(C)CC5)c(O)c4c3C2=O)NC(=O)/C(C)=C\C=C\[C@H](C)[C@H](O)[C@@H](C)[C@@H](O)[C@@H](C)[C@H](OC(C)=O)[C@@H]1C [rifampicin]
Sensitivity of the lactobacilli to the antibiotic: sensitive
